This is an account of results in PubChem BioAssay AID434947 (Broad Institute, 2010).

The campaign covered roughly 2,200 compounds. About 15 (0.7%) were called active.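 Rule for the calls: active = fitted half-maximal concentration for loss of luminescence signal no more than a set limit of log units above the top tested concentration; inconclusive = flat fit with 30 to 70% signal loss, or invalid fit; inactive = half-maximal concentration above that set limit.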 This is one part of the list.

This assay can be described thus: inhibitors of ADP-Glo detection reagents, dose response, artefact control for GSK3beta inhibitor project, biochemical, luminescence, cell-free, homogeneous (AID 434947).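 Note: kinase-free counter screen of ADP-Glo detection reagents for GSK3beta hits.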 Conditions: 5 uM ADP. (In general: ADP-Glo turns the ADP formed in a reaction into a luminescent signal.)
In general, EC50 refers to the concentration giving half of the maximal effect. As to `CCc1cc(=O)oc2cc(C)cc(O)c12`, the EC50 is inactive: > 30 µM.
Next, `Cc1nn(C)c(C(=O)N2CCc3ccccc32)c1Br`: inactive: > 30 µM.
In the case of `Nc1nonc1-n1nnc(C(=O)N/N=C/c2ccccn2)c1CNc1ccccc1`, the EC50 was inactive: > 30 µM.
For `CCOc1ccc(/C=C2/C(=N)N3OC(C)=CC3=NC2=O)cc1OC`, the EC50 is inactive: > 30 µM.
Next, `Cc1ccc2nc3c(cc2c1)c(NC(=O)c1ccco1)nn3CC(C)C`: inactive: > 30 µM; `COc1ccc(Nc2nc(NCCCN3CCOCC3)nc(N)c2[N+](=O)[O-])cc1`: inactive: > 30 µM.
Next, `CCNc1nc(N)nc(-c2cc(Cl)ccc2OC)n1`: inactive: > 30 µM; `CC(=O)c1cccc(NC(=O)NN2CCN(C)CC2)c1`: inactive: > 30 µM.
Next, `COc1ccc(-c2nn(-c3ccccc3)cc2/C=N/O)cc1OC`: inactive: > 30 µM; `O=C(NCC(c1cccs1)N1CCOCC1)c1ccccc1NS(=O)(=O)c1ccc(Cl)cc1` (centres undefined): inactive: > 30 µM.
In the case of `CSc1nc(NCCCO)c2c3c(sc2n1)CN(C)CC3`, the EC50 is inactive: > 30 µM.
For `O=C(CSc1nnc(-c2cccnc2)n1-c1ccccc1)Nc1ccc2c(c1)OCO2` the value was inactive: > 30 µM.
Consider `CCCCc1cc(=O)oc2cc(C)c(CN3CCCC3)c(O)c12`, for which the EC50 was inactive: > 30 µM.
Next, `COc1ccc(CN(CC(=O)NCc2ccc(F)cc2)C(=O)CCC(=O)Nc2ccccn2)cc1`: inactive: > 30 µM; `Nc1nc(NCCOCCO)nc(NCC2CCCO2)c1[N+](=O)[O-]` (centres undefined): inactive: > 30 µM.
For `COc1ccc(COC(=O)C2=C(C)NC(=O)NC2c2ccc(O)c(OC)c2)cc1` (centres undefined) the value was inactive: > 30 µM.
Take `COc1ccc(C(=O)c2coc3ccc(O)c(CN4CCOCC4)c23)cc1`: the EC50 is inactive: > 30 µM.
Consider `O=C1Nc2cc(C(=O)N3CCC(N4CCCCC4)CC3)ccc2S/C1=C\c1ccccc1`, for which the EC50 is inactive: > 30 µM.
For the compound `CCOC(=O)Cc1csc(NC(=O)CSc2nc(-c3ccccc3)c(C#N)c(=O)[nH]2)n1`, the EC50 is inactive: > 30 µM.
Turning to `COc1cccc(CSc2nnc(-c3ccc(F)cc3)o2)c1`, the EC50 is inactive: > 30 µM.
As to `O=C(Nc1ccccn1)Nc1ccccc1Cl`, the EC50 is inactive: > 30 µM.
Turning to `Cn1nc(C(F)(F)F)c2cc(NC(=O)OCc3ccc(C(C)(C)C)cc3)sc21`, the EC50 is inactive: > 30 µM.
For `CC(NCC1COc2ccccc2O1)C1COc2ccccc2O1` (centres undefined), the EC50 was inactive: > 30 µM.
As for `CCN(CC)Cc1c(C(=O)N/N=C/c2cccc3ccccc23)nnn1-c1nonc1N`, the EC50 was inactive: > 30 µM.
Next, `Cc1ccc(S(=O)(=O)N2CN(Cc3ccco3)c3nc4ccccc4nc32)cc1`: inactive: > 3.8 µM; `O=[N+]([O-])c1cc(-c2nc(-c3ccncc3)no2)ccc1Cl`: inactive: > 30 µM.
For `O=[N+]([O-])c1cc(/C=N/O)ccc1N1CCCC1` the value was inactive: > 30 µM; for `COc1ccc(C(C)N2CC34C=CC(O3)C(C(=O)O)C4C2=O)cc1` (centres undefined), inactive: > 30 µM.
For the compound `CCOC(=O)CSc1ccc2nnc(-c3ccncc3)n2n1`, the EC50 is inactive: > 30 µM.
`CN(C)Cc1c(C(=O)N/N=C/c2ccoc2)nnn1-c1nonc1N`: the EC50 is inactive: > 30 µM.
Next, `Nc1nonc1-n1nnc(C(=O)N/N=C/c2ccc(Br)cc2)c1CN1CCOCC1`: inactive: > 30 µM; `Cc1ccc(CSc2ccc3nnc(-c4ccccn4)n3n2)cc1`: inactive: > 30 µM.
With `CCCNCC1COc2ccccc2O1` (centres undefined), the EC50 is inactive: > 11 µM.
Next, `COc1cc(OC)c(OC)cc1CNCC1COc2ccccc2O1` (centres undefined): inactive: > 30 µM; `CCCN1CCN(CCCNC(=O)Cn2nc(C)n3c(cc4cc(OC)ccc43)c2=O)CC1`: inactive: > 30 µM; `COc1ccc(OC)c(NCc2nnc(-c3ccccc3)o2)c1`: inactive: > 30 µM.
For `COc1cccc2c1cc1c(=O)n(CC(=O)NC3CCCCC3)nc(C)n12` the value was inactive: > 30 µM; for `CCn1c(SCC(=O)Nc2cc(Cl)ccc2OC)nnc1C1CC1`, inactive: > 30 µM.
On to `CCOC(=O)CSc1ccc2nnc(CCNS(=O)(=O)c3ccccc3)n2n1`, for which the EC50 is inactive: > 30 µM.
Turning to `Cc1c(C(=O)O)cccc1-n1c(C)cc(/C=N/Nc2ccc([N+](=O)[O-])cn2)c1C`, the EC50 is inactive: > 30 µM.
For `CCOC(=O)/C(C#N)=C/c1cn(CCC(=O)O)nc1-c1ccccc1` the value was inactive: > 30 µM.
As to `COc1cc(OC)cc(C(=O)NCC2CCCN(C(=O)c3csc(C)n3)C2)c1` (centres undefined), the EC50 is inactive: > 30 µM.
Next, `Cc1cccc(OCc2nnc(SCC(=O)Nc3sc(C)c(C)c3C#N)n2C)c1`: inactive: > 30 µM.
Next, `CCCCc1cc(=O)oc2c(CN(C)C)c(O)ccc12`: inactive: > 30 µM.
On to `CN=C(NC#N)SCC(=O)c1ccc(Cl)cc1Cl`, for which the EC50 is inactive: > 30 µM.
On to `COc1ccc(S(=O)(=O)CC(=O)c2cc3cccc(C)c3oc2=O)cc1`, for which the EC50 is inactive: > 30 µM.
`CN(C)S(=O)(=O)c1cc(NC(=O)COC(=O)Cc2ccc(Br)cc2)ccc1Cl`: the EC50 is inactive: > 30 µM.
As for `O=C(CSc1ccc(F)cc1)Nc1ccc(N2CCOCC2)cc1`, the EC50 was inactive: > 30 µM.
Take `COC(=O)c1nnn(-c2nonc2N)c1CSc1nc2ccccc2o1`: the EC50 is inactive: > 30 µM.
For `CCOc1ccc2c(c1)-c1c(ssc1=S)C(C)(C)N2C` the value was inactive: > 30 µM; for `C=CCN(c1ccc(C(=O)Nc2ccc(C)c(C)c2)cc1)S(C)(=O)=O`, inactive: > 30 µM; for `COc1ccc(/C=C2\Sc3ccc(C(=O)NCCCN4CCCC4)cc3N(C)C2=O)cc1OC`, inactive: > 30 µM.
Consider `Cc1ccc(/C=C2/Sc3ccc(C(=O)NCCN4CCOCC4)cc3NC2=O)cc1`, for which the EC50 is inactive: > 30 µM.
For `Cc1c([N+](=O)[O-])c2ccc(O)cc2n1-c1ccccc1` the value was inactive: > 30 µM; for `CC(C)CNc1nc(N)c([N+](=O)[O-])c(NC2CCCCC2)n1`, inactive: > 30 µM; for `O=Cc1cc(CCC(=O)O)ccc1O`, inactive: > 30 µM.
For `O=C1/C(=C\c2ccc(O)cc2)SC(=S)N1Cc1ccccc1` the value was inactive: > 30 µM; for `CCN1CCN(c2nc(N)c([N+](=O)[O-])c(Nc3cccc(C)c3)n2)CC1`, inactive: > 30 µM; for `N#Cc1c2n(c3c(=O)[nH]cnc13)CCCC2`, inactive: > 30 µM.
